Data published in PMC11178496.
These are yes or no findings as the source states them, for the method shown. In cells and extracts the contact can be indirect. Some binding calls cover weakened binding; strength is not graded here.

Sequences of proteins named here, by UniProt entry; tags and fusion partners are left off.
UniProt Q14790: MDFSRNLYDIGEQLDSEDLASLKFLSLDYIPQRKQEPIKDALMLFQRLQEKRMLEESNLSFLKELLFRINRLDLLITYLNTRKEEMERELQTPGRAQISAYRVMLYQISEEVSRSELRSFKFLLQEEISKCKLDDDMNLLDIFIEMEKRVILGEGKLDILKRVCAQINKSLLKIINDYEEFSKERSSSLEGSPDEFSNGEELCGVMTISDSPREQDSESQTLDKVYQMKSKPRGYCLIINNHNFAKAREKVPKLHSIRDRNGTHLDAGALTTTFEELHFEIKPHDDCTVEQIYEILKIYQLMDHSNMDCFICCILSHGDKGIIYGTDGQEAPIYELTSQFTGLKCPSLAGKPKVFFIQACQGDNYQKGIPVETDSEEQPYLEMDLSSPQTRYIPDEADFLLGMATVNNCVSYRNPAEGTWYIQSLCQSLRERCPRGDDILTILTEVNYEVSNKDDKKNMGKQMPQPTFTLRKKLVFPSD

Molecular target: Procaspase-8 (human (endogenous in SKW 6.4)) (UniProt Q14790)
Assay: co-IP; caspase-8-co-IP, antibody immobilised on Protein G sepharose beads (Pierce Co-Immunoprecipitation Kit); SKW 6.4 cells with or without CD95L stimulation; Western Blot

binding: binds
B1: RIOK1 (protein, UniProt Q9BRS2 1-568)
chain: MDYRRLLMSRVVPGQFDDADSSDSENRDLKTVKEKDDILFEDLQDNVNENGEGEIEDEEEEGYDDDDDDWDWDEGVGKLAKGYVWNGGSNPQANRQTSDSSSAKMSTPADKVLRKFENKINLDKLNVTDSVINKVTEKSRQKEADMYRIKDKADRATVEQVLDPRTRMILFKMLTRGIITEINGCISTGKEANVYHASTANGESRAIKIYKTSILVFKDRDKYVSGEFRFRHGYCKGNPRKMVKTWAEKEMRNLIRLNTAEIPCPEPIMLRSHVLVMSFIGKDDMPAPLLKNVQLSESKARELYLQVIQYMRRMYQDARLVHADLSEFNMLYHGGGVYIIDVSQSVEHDHPHALEFLRKDCANVNDFFMRHSVAVMTVRELFEFVTDPSITHENMDAYLSKAMEIASQRTKEERSSQDHVDEEVFKRAYIPRTLNEVKNYERDMDIIMKLKEEDMAMNAQQDNILYQTVTGLKKDLSGVQKVPALLENQVEERTCSDSEDIGSSECSDTDSEEQGDHARPKKHTTDPDIDKKERKKMVKEAQREKRKNKIPKHVKKRKEKTAKTKKGK
